Values from PubChem BioAssay AID1259405 (NCATS, 2018)
Shown is an unselected part of about 50,000 reagents. About 4,000 of them (8%) count as active. 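Mouse siRNA library applied to hamster cells; one well for each siRNA.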

Purpose: 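Knock-downs that lift recombinant protein yield in hamster ovary cells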 (primary screen)
System: Chinese hamster CHO-K1 ovary cells with stable secreted eGFP expression
Knock-down reagent: single siRNA against mouse genes, 0.8 pmol siRNA per well (2 µl of 400 nM stock)
Duration: 3 days
Measured: 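Per-well intracellular GFP measured by laser scanning cytometry, plus viability from ATP luminescence, each relative to plate median of non-targeting control wells, in %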
Direction: GFP, % of control: higher = more GFP per well, higher productivity; viability (ATP), % of control: higher = more viable cells (more ATP)
Call rule: 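Called active when intracellular GFP, relative to negative control, is at or above 120%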

The first 3 entries, to show the layout:
Target gene | PubChem SID | GFP, % of control | viability (ATP), % of control | outcome
Fkbp2 | SID363545401 | 50.2 | 69.4 | inactive
Fkbp2 | SID363548914 | 58.3 | 72.2 | inactive
Fkbp2 | SID363562720 | 36.6 | 48.1 | inactive

Results, repeating the preview:
Target gene | PubChem SID | GFP, % of control | viability (ATP), % of control | outcome
Fkbp2 | SID363545401 | 50.2 | 69.4 | inactive
Fkbp2 | SID363548914 | 58.3 | 72.2 | inactive
Fkbp2 | SID363562720 | 36.6 | 48.1 | inactive
Thap3 | SID363543552 | 75.9 | 40.3 | inactive
Thap3 | SID363553045 | 116 | 102 | inactive
Thap3 | SID363558893 | 92.2 | 101 | inactive
E2f1 | SID363573353 | 71.1 | 73.1 | inactive
E2f1 | SID363588592 | 89 | 75.4 | inactive
Zfp811 | SID363555279 | 68.2 | 44.7 | inactive
Zfp811 | SID363563940 | 27.3 | 43.1 | inactive
Zfp811 | SID363587486 | 84.9 | 109 | inactive
Bsdc1 | SID363540712 | 68.4 | 86.1 | inactive
Bsdc1 | SID363543163 | 86 | 81 | inactive
Bsdc1 | SID363552656 | 102 | 91.5 | inactive
Irgm2 | SID363540342 | 88.2 | 68.3 | inactive
Irgm2 | SID363542094 | 81 | 85.6 | inactive
Irgm2 | SID363567010 | 129 | 94.7 | active
Spata19 | SID363540770 | 95.9 | 104 | inactive
Spata19 | SID363543221 | 85.9 | 70.9 | inactive
Spata19 | SID363552714 | 108 | 89.8 | inactive
Casp8 | SID363547275 | 83.8 | 85.6 | inactive
Casp8 | SID363558044 | 109 | 87.6 | inactive
Casp8 | SID363559802 | 80.7 | 73.9 | inactive
Gfer | SID363568658 | 93.7 | 111 | inactive
Gfer | SID363576050 | 58.4 | 77.2 | inactive
Gfer | SID363578866 | 63.9 | 62 | inactive
Sec14l3 | SID363574886 | 40.7 | 54.5 | inactive
Sec14l3 | SID363575942 | 80.2 | 85.7 | inactive
Sec14l3 | SID363580518 | 48.7 | 66.5 | inactive
Pcx | SID363572595 | 154 | 71.1 | active
Pcx | SID363577875 | 94 | 81.1 | inactive
Pcx | SID363582099 | 100 | 113 | inactive
Leprot | SID363568906 | 93.5 | 54.9 | inactive
Leprot | SID363576298 | 102 | 62.6 | inactive
Leprot | SID363579114 | 78.4 | 81.4 | inactive
Kcnc2 | SID363547333 | 103 | 84.4 | inactive
Kcnc2 | SID363558102 | 70.1 | 38.7 | inactive
Kcnc2 | SID363559860 | 85.1 | 63.3 | inactive
Drp2 | SID363572388 | 71.4 | 106 | inactive
Drp2 | SID363574148 | 68.3 | 64.9 | inactive
Or13g1 | SID363544398 | 58.6 | 64.2 | inactive
Or13g1 | SID363550726 | 87.2 | 68.3 | inactive
Or13g1 | SID363557275 | 125 | 65.8 | active
Hsf4 | SID363573743 | 72.3 | 36.6 | inactive
Hsf4 | SID363581487 | 90.9 | 63.8 | inactive
Hsf4 | SID363583951 | 90.3 | 110 | inactive
Afp | SID363570284 | 74.5 | 84 | inactive
Afp | SID363576620 | 69.6 | 75.2 | inactive
Afp | SID363579788 | 94.8 | 66.8 | inactive
Cyp2a12 | SID363547639 | 47.4 | 37.6 | inactive
Cyp2a12 | SID363558408 | 74.7 | 56.3 | inactive
Cyp2a12 | SID363560166 | 75.6 | 83.2 | inactive
Hcn3 | SID363574389 | 122 | 84.2 | active
Hcn3 | SID363575445 | 136 | 69.5 | active
Hcn3 | SID363580021 | 111 | 78.5 | inactive
Tgfbr1 | SID363571279 | 105 | 107 | inactive
Tgfbr1 | SID363571631 | 128 | 83.9 | active
Tgfbr1 | SID363571983 | 84.1 | 83.2 | inactive
Mup3 | SID363545646 | 97.7 | 71.1 | inactive
Mup3 | SID363549159 | 89.5 | 101 | inactive
Mup3 | SID363562965 | 53.8 | 40.9 | inactive
Rangap1 | SID363545150 | 95.5 | 95.9 | inactive
Rangap1 | SID363548663 | 41.2 | 45.3 | inactive
Rangap1 | SID363562469 | 47.6 | 68.8 | inactive
Tprg1 | SID363552376 | 72 | 72.5 | inactive
Tprg1 | SID363585512 | 107 | 88.3 | inactive
Tprg1 | SID363585863 | 106 | 134 | inactive
Ttll13 | SID363541732 | 97.4 | 83 | inactive
Ttll13 | SID363553324 | 107 | 77.8 | inactive
Ttll13 | SID363566648 | 35.4 | 59.1 | inactive
Chchd2 | SID363550062 | 88.8 | 81.3 | inactive
Chchd2 | SID363564571 | 112 | 105 | inactive
Chchd2 | SID363588116 | 134 | 121 | active
Nus1 | SID363550051 | 118 | 119 | inactive
Nus1 | SID363564560 | 87 | 69.1 | inactive
Nus1 | SID363588105 | 151 | 106 | active
Inpp4a | SID363540394 | 37 | 63.6 | inactive
Inpp4a | SID363542146 | 94.5 | 77 | inactive
Inpp4a | SID363567062 | 77.9 | 80.9 | inactive
Il17a | SID363541476 | 37 | 40.3 | inactive
Il17a | SID363556103 | 61.6 | 61.2 | inactive
Il17a | SID363566392 | 60.2 | 58 | inactive
Or52r1c | SID363554383 | 126 | 64.2 | active
Or52r1c | SID363567830 | 101 | 61.4 | inactive
Or52r1c | SID363585187 | 88.5 | 102 | inactive
Or10x4 | SID363544635 | 48 | 39.6 | inactive
Or10x4 | SID363550963 | 72.9 | 64.9 | inactive
Or10x4 | SID363557512 | 54.6 | 46.9 | inactive
Rcn3 | SID363582430 | 124 | 136 | active
Rcn3 | SID363584190 | 74.2 | 69 | inactive
Aqp4 | SID363574702 | 106 | 79.5 | inactive
Aqp4 | SID363575758 | 94.8 | 102 | inactive
Aqp4 | SID363580334 | 113 | 91.3 | inactive
Plscr1 | SID363545684 | 62.1 | 74.9 | inactive
Plscr1 | SID363549197 | 84.4 | 86.5 | inactive
Plscr1 | SID363563003 | 20.4 | 27.4 | inactive
Clec12a | SID363562360 | 43.4 | 43 | inactive
Clec12a | SID363567498 | 67.4 | 79.9 | inactive
Clec12a | SID363584855 | 78.6 | 48.2 | inactive
Sycp1 | SID363569123 | 101 | 60.1 | inactive
Sycp1 | SID363583555 | 69.8 | 75.8 | inactive
Fndc10 | SID363546828 | 45.1 | 54.3 | inactive
Fndc10 | SID363548584 | 72.7 | 88.9 | inactive
Fndc10 | SID363560762 | 75.7 | 101 | inactive
Or5b94 | SID363544529 | 96.3 | 50.5 | inactive
Or5b94 | SID363550857 | 82.3 | 43.4 | inactive
Or5b94 | SID363557406 | 61.8 | 56.3 | inactive
